From paper PMC3146519, “Highly Efficient Production of Soluble Proteins from Insoluble Inclusion Bodies by a Two-Step-Denaturing and Refolding Method”

Tested on: NRSF/REST DBD (unfolded)
Assay: EMSA
Conditions: unfolded (denatured) protein control, 0.1 mM ZnCl2; 10 mM Tris pH 7.0, 0.1 mM ZnCl2, 20 ul, 30 min at room temperature; 5% native PAGE, EtBr stain; recombinant protein; label: none (EtBr stain)

“TTCAGCACCACGGACAGCGCC (double strand) [NRSE/RE1 dsDNA]”: no binding.

For at least one entry, the source does not settle the construct or the ends of the probe. Negatives hold for the conditions tested.
